PubChem BioAssay AID686938 – Drosophila RNAi Screening Center, 2013
The screen tested about 23,000 reagents; this is a random part of those with a known target gene and a result. Over the whole deposit, 75 (0.33%) got an active call. 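Raw plate signals without normalisation; calls rest on plate z-scores that were not deposited; ratio present for only 364 wells.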 A plus sign joins genes that one reagent is predicted to hit. Not given: the dose of the treatment.

Test: 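Looking for CRAC channel components and the factors controlling them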 (primary screen)
System: Drosophila S2R+ cells
Reagent: long dsRNA against Drosophila genes, about 0.25 µg dsRNA per well, roughly 10,000 cells
Time to read-out: 5 days of knock-down before the calcium assay
Treatment: thapsigargin (SERCA pump blocker) to empty calcium stores; entry signal taken 4 min after adding it
Measurement: 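Per-well fluo-4 fluorescence in two replicates, unnormalised, measured in resting cells and 4 min after store depletion by the SERCA blocker thapsigargin; ratio of the two present in few wells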
Direction: calcium entry signal: higher = stronger calcium signal after store depletion; entry to resting ratio: higher = more calcium entry relative to resting level; resting calcium signal: higher = higher resting calcium signal
Active means: 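Called when the plate z-score of the entry-to-rest ratio, mean of duplicates, falls below −3; wells with low overall dye signal (Fmax z below −2) or more than five off-targets excluded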
Meaning of the calls: active = strongly reduced calcium entry; inactive = no strong reduction

| gene | dsRNA | calcium entry signal, replicate 1 (fluorescence units) | calcium entry signal, replicate 2 (fluorescence units) | entry to resting ratio | resting calcium signal, replicate 1 (fluorescence units) | resting calcium signal, replicate 2 (fluorescence units) | call |
| --- | --- | --- | --- | --- | --- | --- | --- |
| hyx | DRSC14462 | 2.56e7 | 3.01e7 | – | 1.33e7 | 1.58e7 | inactive |
| Egfr | DRSC03871 | 3.12e7 | 6.92e7 | – | 1.40e7 | 2.75e7 | inactive |
| Egfr | DRSC04613 | 3.90e7 | – | – | 1.99e7 | – | inactive |
| dgt6 | DRSC14424 | 3.03e7 | 3.22e7 | – | 1.45e7 | 1.81e7 | inactive |
| Phk-3 | DRSC04547 | 2.74e7 | 3.22e7 | – | 1.51e7 | 1.52e7 | inactive |
| Lkb1 | DRSC16481 | 2.91e7 | 3.42e7 | – | 1.30e7 | 1.43e7 | inactive |
| Mp | DRSC10193 | 4.64e7 | 3.76e7 | – | 2.84e7 | 1.88e7 | inactive |
| Mp | DRSC11029 | 3.86e7 | 3.90e7 | – | 1.79e7 | 1.68e7 | inactive |
| Mp | DRSC11030 | 4.01e7 | 5.33e7 | – | 1.98e7 | 2.28e7 | inactive |
| CG14689 | DRSC14912 | 3.66e7 | 3.06e7 | – | 1.87e7 | 1.63e7 | inactive |
| BBS9 | DRSC04257 | 2.97e7 | 5.11e7 | – | 1.36e7 | 1.89e7 | inactive |
| vig | DRSC03630 | 3.47e7 | 5.57e7 | – | 1.53e7 | 2.41e7 | inactive |
| vig | DRSC03631 | 4.42e7 | – | – | 2.16e7 | – | inactive |
| vig | DRSC21672 | 4.60e7 | 3.88e7 | – | 2.81e7 | 1.80e7 | inactive |
| CG42394 + CG6567 | DRSC12821 | 2.93e7 | 4.41e7 | – | 1.45e7 | 1.80e7 | inactive |
| Atf-2 + veg (retired record) | DRSC04130 | 4.48e7 | – | – | 2.29e7 | – | inactive |
| Atf-2 + veg (retired record) | DRSC04413 | 2.05e7 | 2.27e7 | – | 9.48e6 | 1.20e7 | inactive |
| CG18417 | DRSC10319 | 2.45e7 | 4.10e7 | – | 1.27e7 | 1.55e7 | inactive |
| Hsp23 | DRSC11188 | 5.41e7 | 3.84e7 | – | 3.49e7 | 1.57e7 | inactive |
| Hex-C | DRSC07079 | 3.21e7 | 3.29e7 | – | 1.70e7 | 1.66e7 | inactive |
| CG3505 | DRSC15489 | 3.11e7 | 3.49e7 | – | 1.43e7 | 1.61e7 | inactive |
| CG1532 | DRSC20516 | 4.13e7 | 4.37e7 | – | 1.99e7 | 1.97e7 | inactive |
| c12.2 | DRSC18751 | 2.92e7 | 3.55e7 | – | 1.45e7 | 1.64e7 | inactive |
| GstO1 | DRSC10688 | 2.69e7 | 3.36e7 | – | 1.21e7 | 1.36e7 | inactive |
| Rab27 | DRSC18567 | 2.11e7 | 2.65e7 | – | 9.64e6 | 1.23e7 | inactive |
| Rpt6R | DRSC15431 | 3.92e7 | 4.30e7 | – | 1.96e7 | 1.89e7 | inactive |
| Pdss2 | DRSC11625 | 3.48e7 | 4.57e7 | – | 1.72e7 | 3.25e7 | inactive |
| Lsm12a | DRSC19702 | 4.38e7 | 5.82e7 | – | 2.11e7 | 2.41e7 | inactive |
| Vhl | DRSC07716 | 2.39e7 | 3.24e7 | – | 1.32e7 | 1.50e7 | inactive |
| Cyp9h1 | DRSC07391 | 3.15e7 | 3.54e7 | – | 1.69e7 | 1.71e7 | inactive |
| Or30a | DRSC03385 | 2.74e7 | 4.28e7 | – | 1.31e7 | 1.74e7 | inactive |
| Efa6 | DRSC13569 | 3.83e7 | 2.90e7 | – | 1.83e7 | 1.36e7 | inactive |
| Efa6 | DRSC15312 | 3.82e7 | 4.64e7 | – | 1.88e7 | 2.13e7 | inactive |
| Efa6 | DRSC16141 | 3.72e7 | 4.74e7 | – | 1.77e7 | 2.16e7 | inactive |
| Dro | DRSC07406 | 3.58e7 | 2.95e7 | – | 1.71e7 | 1.44e7 | inactive |
| CG15115 | DRSC06537 | 4.14e7 | 3.12e7 | – | 2.11e7 | 1.62e7 | inactive |
| rb | DRSC18826 | 4.39e7 | 4.51e7 | – | 2.07e7 | 2.08e7 | inactive |
| Dbx | DRSC08270 | 2.71e7 | 3.49e7 | – | 1.48e7 | 1.70e7 | inactive |
| Dbx | DRSC08271 | 2.66e7 | 4.05e7 | – | 1.32e7 | 1.80e7 | inactive |
| Dbx | DRSC08394 | 2.66e7 | 3.41e7 | – | 1.25e7 | 1.64e7 | inactive |
| AdamTS-A | DRSC14992 | 3.64e7 | 4.38e7 | – | 1.46e7 | 1.92e7 | inactive |
| AdamTS-A | DRSC15966 | 2.26e7 | 2.63e7 | – | 1.19e7 | 3.93e7 | inactive |
| CG5787 | DRSC02895 | 4.62e7 | – | – | 2.24e7 | – | inactive |
| Spn77Ba | DRSC10693 | 2.92e7 | 3.73e7 | – | 1.47e7 | 2.73e7 | inactive |
| CG15435 | DRSC00450 | 2.52e7 | 1.98e7 | – | 1.15e7 | 1.01e7 | inactive |
| ctrip | DRSC12242 | 2.52e7 | 4.40e7 | – | 1.34e7 | 1.93e7 | inactive |
| ctrip | DRSC12287 | 2.32e7 | 2.57e7 | – | 1.07e7 | 1.32e7 | inactive |
| ctrip | DRSC22449 | 2.76e7 | 2.71e7 | – | 1.49e7 | 1.21e7 | inactive |
| CG1024 | DRSC12496 | 2.40e7 | 2.38e7 | – | 1.19e7 | 1.19e7 | inactive |
| Or67d | DRSC10158 | 1.65e7 | 3.07e7 | – | 1.02e7 | 1.27e7 | inactive |
| Tep2 | DRSC02679 | 3.29e7 | 3.97e7 | – | 1.69e7 | 1.88e7 | inactive |
| Tep2 | DRSC03451 | 3.07e7 | 3.71e7 | – | 1.63e7 | 1.81e7 | inactive |
| CG14218 | DRSC19575 | 3.69e7 | 6.05e7 | – | 2.07e7 | 2.67e7 | inactive |
| Cpr11A | DRSC19861 | 4.34e7 | 3.06e7 | – | 2.07e7 | 1.46e7 | inactive |
| CG12020 | DRSC08226 | 3.87e7 | 3.86e7 | – | 1.91e7 | 1.87e7 | inactive |
| Srg3 | DRSC08984 | 4.07e7 | 3.74e7 | – | 2.20e7 | 1.69e7 | inactive |
| Srg3 | DRSC10178 | 2.79e7 | 3.70e7 | – | 1.37e7 | 1.51e7 | inactive |
| Best1 | DRSC16909 | 3.69e7 | 2.86e7 | – | 1.77e7 | 1.52e7 | inactive |
| CG13255 | DRSC11702 | 2.87e7 | 4.89e7 | – | 1.44e7 | 2.04e7 | inactive |
| cyc | DRSC11337 | 3.13e7 | 5.35e7 | – | 1.54e7 | 2.19e7 | inactive |
| pio | DRSC04386 | 4.54e7 | – | – | 2.17e7 | – | inactive |
| CG15236 | DRSC04970 | 2.39e7 | 3.09e7 | – | 1.19e7 | 1.28e7 | inactive |
| CG15236 | DRSC21396 | 4.46e7 | 3.93e7 | – | 2.41e7 | 1.92e7 | inactive |
| CG15236 | DRSC23025 | 3.60e7 | 3.80e7 | – | 1.79e7 | 1.80e7 | inactive |
| cv | DRSC17833 | 3.23e7 | 3.86e7 | – | 1.50e7 | 1.79e7 | inactive |
| CG2839 | DRSC00544 | 2.91e7 | 3.19e7 | – | 1.50e7 | 1.54e7 | inactive |
| CG13039 | DRSC09920 | 4.20e7 | 3.25e7 | – | 1.77e7 | 1.32e7 | inactive |
| VhaSFD | DRSC03471 | 6.39e7 | – | – | 4.65e7 | – | inactive |
| Spn88Ea | DRSC17061 | 3.79e7 | 5.55e7 | – | 1.89e7 | 7.03e7 | inactive |
| yem | DRSC14865 | 3.63e7 | 5.86e7 | – | 1.77e7 | 2.39e7 | inactive |
| yem | DRSC17097 | 3.48e7 | 5.15e7 | – | 1.71e7 | 2.26e7 | inactive |
| CG15167 | DRSC02468 | 4.45e7 | 4.20e7 | – | 2.17e7 | 1.82e7 | inactive |
| CG14630 | DRSC18166 | 5.36e7 | 6.15e7 | 2 | 2.64e7 | 2.58e7 | inactive |
| CG14630 | DRSC18653 | 4.83e7 | 4.62e7 | 2 | 2.39e7 | 2.12e7 | inactive |
| CCAP | DRSC15674 | 4.17e7 | 2.95e7 | – | 2.06e7 | 1.35e7 | inactive |

A few values from the entries so far:
Result of CG18417 [DRSC10319] in “call”: inactive
Value for CG14689 [DRSC14912] under “resting calcium signal, replicate 2 (fluorescence units)”: 1.63e7
Entry for ctrip [DRSC12242] under “call”: inactive
Under “resting calcium signal, replicate 1 (fluorescence units)”, VhaSFD [DRSC03471] shows 4.65e7
